Reference: patent US20230036655A1 (OTSUKA PHARMACEUTICAL, published 2023)
No constants are given. Whether binding was seen depends on the method and setting. Some entries that bind do so weakly or less than the wild type.

Target: T1, human GDF15 (hGDF15), mature, wild-type (human, UniProt Q99988 197-308)
T1 construct: Bought recombinant protein: R&D Systems 957-GD-025/CF in most assays, 9279-GD in the crystal and the GDF15/GFRAL/RET assay; It was biotinylated in the GFRAL assay; also called hGDF15 (WT); rhGDF15
T1 sequence: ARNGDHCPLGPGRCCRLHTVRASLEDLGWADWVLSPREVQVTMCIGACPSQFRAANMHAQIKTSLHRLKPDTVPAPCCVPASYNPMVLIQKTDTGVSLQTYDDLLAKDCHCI
Experiment: ELISA, hGDF15 immobilised

binding: binds
B1: H48S-L7 (antibody, human IgG1, kappa, V domains shown)
VH: QVQLQESGPGLVKPSETLSLTCTVSGFSISSDCYWIWIRQPPGKGLEYIGYTFYSGITYYNPSLASRTTISRDTSKNQFSLKLSSVTAADTAVYYCARDCDYAMDYWGQGTLVTVSS
VL: DIQMTQSPSSLSASVGDRVTITCRASQDISNYLNWYQQKPGKAVKLLIHYTSTLHSGVPSRFSGSGSGTDYTLTISSLQPEDFATYFCQQGNTLPWTFGQGTKLEIKR
notes: Tested as culture supernatant; also called HuMAB2 variant H48S
